The record followed here is patent publication US10525115B2 (Immatics Biotechnologies GmbH, priority 2014, dated 2020).

The test system of one data set is primary AML samples. The data set can be described thus: HLA class I ligandome analysis (W6/32 immunoaffinity purification, LC-MS/MS) of primary AML samples. The following applies: HLA class I ligandome, AML patients (n=15); count for the HLA ligand (LiTAP) or, on protein lines, for the source protein (LiTAA). On the set-up: species or system human.
The subject of data set [1] is cancer tissues in comparison to non-cancerous tissues and organs. Briefly: Presentation profile / over-presentation by label-free LC-MS (XPRESIDENT), tumor versus normal tissues, other proliferative diseases. On the set-up: species or system human. The following applies: other proliferative diseases / organs (other than AML) that over- or exclusively present the peptide; Table 5.

“184 (KAVPSQKRT; listed as Homo sapiens) [compound 184]”: in the data set on primary AML samples, the “Number of positive AMLs” value worked out at 1. The “Proliferative disease and location thereof” value in data set [1] was “lung, non-small cell lung carcinoma, stomach, adenocarcinoma”.
As to “185 (LKAVPSQKRT; listed as Homo sapiens) [compound 185]”, in the data set with primary AML samples, the “Number of positive AMLs” value was 1. Besides, in data set [1], the “Proliferative disease and location thereof” value is “lung, non-small cell lung carcinoma, stomach, adenocarcinoma”.
For “186 (SLIAVFQKY; listed as Homo sapiens) [compound 186]”, the “Number of positive AMLs” value in the data set on primary AML samples worked out at 1. The “Proliferative disease and location thereof” value in data set [1] was “lung, non-small cell lung carcinoma, stomach, adenocarcinoma”.
Turning to “187 (IIKEKTVVY; listed as Homo sapiens) [compound 187]”, the “Number of positive AMLs” value in the data set on primary AML samples came out at 1. In data set [1], the “Proliferative disease and location thereof” value is reported as “liver, hepatocellular carcinoma, cancer, liver, hepatocellular carcinoma”.
Regarding “188 (LLEQKVWEV; listed as Homo sapiens) [compound 188]”, the “Number of positive AMLs” value in the data set on primary AML samples was determined as 1. Moreover, the “Proliferative disease and location thereof” value in data set [1] was “liver, hepatocellular carcinoma, cancer, liver, hepatocellular carcinoma”.
With “189 (SEIAESHRF; listed as Homo sapiens) [compound 189]”, in the data set on primary AML samples, the “Number of positive AMLs” value is recorded as 2. The “Proliferative disease and location thereof” value in data set [1] is “liver, hepatocellular carcinoma, cancer, liver, hepatocellular carcinoma”.
Take “190 (YLAIGIHEL; listed as Homo sapiens) [compound 190]”: the “Number of positive AMLs” value in the data set on primary AML samples stood at 1. Besides, the “Proliferative disease and location thereof” value in data set [1] was “liver, hepatocellular carcinoma, cancer, liver, hepatocellular carcinoma”.
Consider “191 (IHDELQQSF; listed as Homo sapiens) [compound 191]”, for which, in the data set with primary AML samples, the “Number of positive AMLs” value is on record as 3. The “Proliferative disease and location thereof” value in data set [1] was “colon or rectum, spleen, chronic myeloid leukemia”.
As to “194 (FEVKDLLSL; listed as Homo sapiens) [compound 194]”, the “Number of positive AMLs” value in the data set on primary AML samples is on record as 1. Further, in data set [1], the “Proliferative disease and location thereof” value is “kidney, clear cell renal cell carcinoma, brain, meningioma”.
With “195 (FSKAKPSVL; listed as Homo sapiens) [compound 195]”, in the data set on primary AML samples, the “Number of positive AMLs” value stood at 2. In data set [1], the “Proliferative disease and location thereof” value was “liver, hepatocellular carcinoma, breast, infiltrating; lobular carcinoma”.
As for “196 (EAIKALEV; listed as Homo sapiens) [compound 196]”, the “Number of positive AMLs” value in the data set with primary AML samples was 1. Further, the “Proliferative disease and location thereof” value in data set [1] is given as “stomach, metastatic, lung, neuroendocrine carcinoma”.
As to “197 (EVASAKQSVKY; listed as Homo sapiens) [compound 197]”, in the data set on primary AML samples, the “Number of positive AMLs” value is 1. Also, the “Proliferative disease and location thereof” value in data set [1] is reported as “stomach, metastatic, lung, neuroendocrine carcinoma”.
Consider “198 (IEFTYTAKL; listed as Homo sapiens) [compound 198]”, for which the “Number of positive AMLs” value with primary AML samples was found to be 1. Also, the “Proliferative disease and location thereof” value in data set [1] is recorded as “stomach, metastatic, lung, neuroendocrine carcinoma”.
Take “199 (LLADITSKY; listed as Homo sapiens) [compound 199]”: in the data set with primary AML samples, the “Number of positive AMLs” value was found to be 1. The “Proliferative disease and location thereof” value in data set [1] is listed as “stomach, metastatic, lung, neuroendocrine carcinoma”.
Consider “200 (VLVDRTIYI; listed as Homo sapiens) [compound 200]”, for which the “Number of positive AMLs” value in the data set with primary AML samples was 3. The “Proliferative disease and location thereof” value in data set [1] was “liver, hepatocellular carcinoma, liver, focal; nodular hyperplasia”.
For “201 (IPVVHASI; listed as Homo sapiens) [compound 201]”, in the data set on primary AML samples, the “Number of positive AMLs” value came out at 1. Besides, in data set [1], the “Proliferative disease and location thereof” value is listed as “stomach, adenocarcinoma, colon, adenocarcinoma”.
“202 (TVADQVLVGSY; listed as Homo sapiens) [compound 202]”: in the data set on primary AML samples, the “Number of positive AMLs” value was 1. The “Proliferative disease and location thereof” value in data set [1] is reported as “stomach, adenocarcinoma, colon, adenocarcinoma”.
Consider “203 (VALVHPDL; listed as Homo sapiens) [compound 203]”, for which the “Number of positive AMLs” value in the data set with primary AML samples was determined as 1. Further, the “Proliferative disease and location thereof” value in data set [1] is reported as “stomach, adenocarcinoma, colon, adenocarcinoma”.
As to “204 (LPDDKVTAL; listed as Homo sapiens) [compound 204]”, the “Number of positive AMLs” value with primary AML samples is on record as 3. Besides, the “Proliferative disease and location thereof” value in data set [1] was “stomach, metastatic, stomach, adenocarcinoma”.
On to “205 (KIAKQIVQK; listed as Homo sapiens) [compound 205]”, for which, in the data set with primary AML samples, the “Number of positive AMLs” value stood at 1. Also, the “Proliferative disease and location thereof” value in data set [1] is listed as “lung, non-small cell lung carcinoma, lung, neuroendocrine carcinoma”.
As to “206 (VEKILLSVV; listed as Homo sapiens) [compound 206]”, the “Number of positive AMLs” value in the data set on primary AML samples was 2. Also, in data set [1], the “Proliferative disease and location thereof” value is recorded as “lung, non-small cell lung carcinoma, lung, neuroendocrine carcinoma”.
As to “207 (APAGARGGPA; listed as Homo sapiens) [compound 207]”, the “Number of positive AMLs” value in the data set with primary AML samples was determined as 1. For the same substance, the “Proliferative disease and location thereof” value in data set [1] is listed as “colon or rectum, rectum, adenocarcinoma”.
“208 (EHLRKLEAE; listed as Homo sapiens) [compound 208]”: in the data set with primary AML samples, the “Number of positive AMLs” value was 1. Also, in data set [1], the “Proliferative disease and location thereof” value is listed as “colon or rectum, rectum, adenocarcinoma”.
With “209 (RFIPELINF; listed as Homo sapiens) [compound 209]”, the “Number of positive AMLs” value with primary AML samples stood at 1. Besides, in data set [1], the “Proliferative disease and location thereof” value is “colon or rectum, rectum, adenocarcinoma”.
On to “210 (TEKIAQLF; listed as Homo sapiens) [compound 210]”, for which, in the data set on primary AML samples, the “Number of positive AMLs” value stood at 1. For the same substance, the “Proliferative disease and location thereof” value in data set [1] is “stomach, adenocarcinoma, ovary, adenocarcinoma”.
With “211 (KLHDETLTY; listed as Homo sapiens) [compound 211]”, the “Number of positive AMLs” value in the data set on primary AML samples is 1. Also, the “Proliferative disease and location thereof” value in data set [1] was “stomach, adenocarcinoma, ovary, adenocarcinoma”.
For the substance “212 (LHDETLTYL; listed as Homo sapiens) [compound 212]”, in the data set with primary AML samples, the “Number of positive AMLs” value was determined as 1. For the same substance, the “Proliferative disease and location thereof” value in data set [1] was “stomach, adenocarcinoma, ovary, adenocarcinoma”.
For the substance “213 (GPQEGNGPSLF; listed as Homo sapiens) [compound 213]”, the “Number of positive AMLs” value in the data set on primary AML samples amounted to 1. The “Proliferative disease and location thereof” value in data set [1] is given as “colon or rectum, synovial sarcoma”.
Take “214 (YLLQRAVEV; listed as Homo sapiens) [compound 214]”: the “Number of positive AMLs” value with primary AML samples came to 2. Besides, the “Proliferative disease and location thereof” value in data set [1] is reported as “colon or rectum, synovial sarcoma”.
As to “217 (DTFPGPYAVL; listed as Homo sapiens) [compound 217]”, in the data set on primary AML samples, the “Number of positive AMLs” value is on record as 2. The “Proliferative disease and location thereof” value in data set [1] was “liposarcoma”.
As to “218 (DTMPQTYKR; listed as Homo sapiens) [compound 218]”, the “Number of positive AMLs” value with primary AML samples amounted to 1. In data set [1], the “Proliferative disease and location thereof” value is on record as “liposarcoma”.
Regarding “221 (EAITAIMKY; listed as Homo sapiens) [compound 221]”, the “Number of positive AMLs” value in the data set on primary AML samples is given as 1. Further, the “Proliferative disease and location thereof” value in data set [1] is “kidney, clear cell renal cell carcinoma, spleen, non-Hodgkin's lymphoma”.
In the case of “222 (KEKPAENTL; listed as Homo sapiens) [compound 222]”, the “Number of positive AMLs” value with primary AML samples was 1. In addition, the “Proliferative disease and location thereof” value in data set [1] was “kidney, clear cell renal cell carcinoma, spleen, non-Hodgkin's lymphoma”.
On to “223 (NEFQSQQNI; listed as Homo sapiens) [compound 223]”, for which the “Number of positive AMLs” value in the data set with primary AML samples turned out to be 1. The “Proliferative disease and location thereof” value in data set [1] is “kidney, clear cell renal cell carcinoma, spleen, non-Hodgkin's lymphoma”.
For “224 (NVIDYGHASKY; listed as Homo sapiens) [compound 224]”, the “Number of positive AMLs” value in the data set on primary AML samples stood at 1. Also, in data set [1], the “Proliferative disease and location thereof” value is listed as “kidney, clear cell renal cell carcinoma, spleen, non-Hodgkin's lymphoma”.
The like results for “225 (FAKSQSKTF; listed as Homo sapiens) [compound 225]” were, in that order, 2 and “atypical lipoma”.
For the substance “226 (LPFSLAHL; listed as Homo sapiens) [compound 226]”, the “Number of positive AMLs” value in the data set with primary AML samples was found to be 1. Also, in data set [1], the “Proliferative disease and location thereof” value is given as “atypical lipoma”.
Take “227 (APNYRLKSL; listed as Homo sapiens) [compound 227]”: the “Number of positive AMLs” value with primary AML samples was 1. In addition, in data set [1], the “Proliferative disease and location thereof” value is on record as “stomach, adenocarcinoma, metastatic renal cell carcinoma”.
Consider “228 (ILKDMGITEY; listed as Homo sapiens) [compound 228]”, for which, in the data set with primary AML samples, the “Number of positive AMLs” value stood at 2. Also, the “Proliferative disease and location thereof” value in data set [1] is “stomach, adenocarcinoma, metastatic renal cell carcinoma”.
Consider “229 (AHDDGRWSL; listed as Homo sapiens) [compound 229]”, for which the “Number of positive AMLs” value in the data set with primary AML samples is 1. Also, in data set [1], the “Proliferative disease and location thereof” value is reported as “stomach, metastatic, lung, squamous cell carcinoma”.
Turning to “230 (KYLTAEAFGF; listed as Homo sapiens) [compound 230]”, in the data set with primary AML samples, the “Number of positive AMLs” value was 2. Moreover, the “Proliferative disease and location thereof” value in data set [1] was “stomach, metastatic, lung, squamous cell carcinoma”.
For the substance “233 (EELQRNISL; listed as Homo sapiens) [compound 233]”, in the data set with primary AML samples, the “Number of positive AMLs” value came to 1. Besides, the “Proliferative disease and location thereof” value in data set [1] was “kidney, clear cell renal cell carcinoma, ovary, adenocarcinoma”.
On to “234 (RPAALFLTL; listed as Homo sapiens) [compound 234]”, for which the “Number of positive AMLs” value in the data set with primary AML samples is 1. Moreover, in data set [1], the “Proliferative disease and location thereof” value is “kidney, clear cell renal cell carcinoma, ovary, adenocarcinoma”.
As for “235 (SEELQRNISL; listed as Homo sapiens) [compound 235]”, the “Number of positive AMLs” value in the data set on primary AML samples was 1. Besides, the “Proliferative disease and location thereof” value in data set [1] was “kidney, clear cell renal cell carcinoma, ovary, adenocarcinoma”.
